Patent publication US10227357B2, “Compounds and methods for kinase modulation, and indications therefor” (Plexxikon Inc., priority 2012, dated 2019)
Some entries share one result that the patent states for a list of compounds.

Amino acid sequences for entries named in this document (tags omitted).
UniProt P10721, whole entry D816V: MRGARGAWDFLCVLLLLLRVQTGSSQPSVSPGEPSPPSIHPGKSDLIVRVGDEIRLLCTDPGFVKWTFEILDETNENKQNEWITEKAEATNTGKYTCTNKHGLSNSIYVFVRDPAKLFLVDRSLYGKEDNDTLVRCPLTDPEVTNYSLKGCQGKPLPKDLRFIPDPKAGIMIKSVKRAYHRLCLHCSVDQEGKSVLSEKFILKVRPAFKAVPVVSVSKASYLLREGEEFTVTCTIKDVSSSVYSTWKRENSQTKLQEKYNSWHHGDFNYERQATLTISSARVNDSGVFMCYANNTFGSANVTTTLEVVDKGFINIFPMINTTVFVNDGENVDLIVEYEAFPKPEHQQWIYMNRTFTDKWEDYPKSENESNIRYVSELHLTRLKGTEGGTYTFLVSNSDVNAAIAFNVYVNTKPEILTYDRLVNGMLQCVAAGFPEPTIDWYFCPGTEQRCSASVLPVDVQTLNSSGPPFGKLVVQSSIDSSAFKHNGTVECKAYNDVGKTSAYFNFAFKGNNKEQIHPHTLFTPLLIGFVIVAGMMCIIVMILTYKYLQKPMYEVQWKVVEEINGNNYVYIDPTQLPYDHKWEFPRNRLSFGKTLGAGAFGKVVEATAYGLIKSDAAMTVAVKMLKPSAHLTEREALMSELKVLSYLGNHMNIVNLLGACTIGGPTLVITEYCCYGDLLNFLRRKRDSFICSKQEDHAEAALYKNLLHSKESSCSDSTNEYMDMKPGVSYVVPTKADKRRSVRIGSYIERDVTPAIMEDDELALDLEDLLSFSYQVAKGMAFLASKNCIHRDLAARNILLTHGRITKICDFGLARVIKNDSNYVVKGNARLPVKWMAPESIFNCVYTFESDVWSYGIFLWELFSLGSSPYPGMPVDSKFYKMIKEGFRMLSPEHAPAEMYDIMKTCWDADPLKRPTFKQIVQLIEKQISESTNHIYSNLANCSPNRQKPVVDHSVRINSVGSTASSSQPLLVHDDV

target: BaF3-FL KIT D816V cells (Homo sapiens, UniProt P10721, D816V, cells depend on it, form not given); assay: Cell-based assay of c-Kit mutant kinase activity, BaF3-FL KIT D816V cell proliferation (ATPlite); conditions: in at least one of the c-kit cell assays described in Example 28 (BaF3-FL KIT D816V or BaF3-FL KIT V560G/D816V); read-out: IC50 (the source's name)

Row | Structure (SMILES) | GI50
1 | CC1(C)C=C(c2cc3c(-c4ccc(NS(=O)(=O)c5ccc(F)cc5)cc4)ncnc3[nH]2)CC(C)(C)O1 [P-0298, 4-fluoro-N-[4-[6-(2,2,6,6-tetramethyl-3H-pyran-4-yl)-7H-pyrrolo[2,3-d]pyrimidin-4-yl]phenyl]benzenesulfonamide] | < 10 µM
2 | Cc1cc2c(-c3ccc(NS(=O)(=O)c4cc(Cl)c(Cl)s4)cc3)ncnc2[nH]1 [P-0299, 4,5-dichloro-N-[4-(6-methyl-7H-pyrrolo[2,3-d]pyrimidin-4-yl)phenyl]thiophene-2-sulfonamide] | < 10 µM
3 | Cc1cc2c(-c3ccc(NS(=O)(=O)c4sc(C)nc4C)cc3)ncnc2[nH]1 [P-0300, 2,4-dimethyl-N-[4-(6-methyl-7H-pyrrolo[2,3-d]pyrimidin-4-yl)phenyl]thiazole-5-sulfonamide] | < 10 µM
4 | Cc1ccc(S(=O)(=O)Nc2ccc(-c3ncnc4[nH]c(C)cc34)cc2)cn1 [P-0301, 6-methyl-N-[4-(6-methyl-7H-pyrrolo[2,3-d]pyrimidin-4-yl)phenyl]pyridine-3-sulfonamide] | < 10 µM
5 | Cc1cc2c(-c3ccc(NS(=O)(=O)c4ccc5c(c4)CCC5)cc3)ncnc2[nH]1 [P-0302, N-[4-(6-methyl-7H-pyrrolo[2,3-d]pyrimidin-4-yl)phenyl]indane-5-sulfonamide] | < 10 µM
6 | Cc1cc2c(-c3ccc(NS(=O)(=O)c4ccc5oncc5c4)cc3)ncnc2[nH]1 [P-0303, N-[4-(6-methyl-7H-pyrrolo[2,3-d]pyrimidin-4-yl)phenyl]-1,2-benzoxazole-5-sulfonamide] | < 10 µM
7 | Cc1cc2c(-c3ccc(NS(=O)(=O)c4cc(Cl)cs4)cc3)ncnc2[nH]1 [P-0304, 4-chloro-N-[4-(6-methyl-7H-pyrrolo[2,3-d]pyrimidin-4-yl)phenyl]thiophene-2-sulfonamide] | < 10 µM
8 | Cc1cc2c(-c3ccc(NS(=O)(=O)c4ccc(C(C)C)cc4)cc3)ncnc2[nH]1 [P-0306, 4-isopropyl-N-[4-(6-methyl-7H-pyrrolo[2,3-d]pyrimidin-4-yl)phenyl]benzenesulfonamide] | < 10 µM
9 | Cc1ccc2sc(S(=O)(=O)Nc3ccc(-c4ncnc5[nH]c(C)cc45)cc3)cc2c1 [P-0308, 5-methyl-N-[4-(6-methyl-7H-pyrrolo[2,3-d]pyrimidin-4-yl)phenyl]benzothiophene-2-sulfonamide] | < 10 µM
10 | Cc1cc2c(-c3ccc(NS(=O)(=O)c4cc5ccccc5s4)cc3)ncnc2[nH]1 [P-0309, N-[4-(6-methyl-7H-pyrrolo[2,3-d]pyrimidin-4-yl)phenyl]benzothiophene-2-sulfonamide] | < 10 µM
11 | O=S(=O)(Nc1ccc(-c2ncnc3[nH]c(C(F)F)cc23)c(F)c1)c1ccc(Cl)cc1 [P-0310, 4-chloro-N-[4-[6-(difluoromethyl)-7H-pyrrolo[2,3-d]pyrimidin-4-yl]-3-fluoro-phenyl]benzenesulfonamide] | < 10 µM
12 | Cc1cc2c(-c3ccc(NS(=O)(=O)c4ccc(C(F)(F)F)cn4)cc3)ncnc2[nH]1 [P-0312, N-[4-(6-methyl-7H-pyrrolo[2,3-d]pyrimidin-4-yl)phenyl]-5-(trifluoromethyl)pyridine-2-sulfonamide] | < 10 µM
13 | Cc1cc2c(-c3ccc(NS(=O)(=O)c4ccc(C)s4)cc3)ncnc2[nH]1 [P-0313, 5-methyl-N-[4-(6-methyl-7H-pyrrolo[2,3-d]pyrimidin-4-yl)phenyl]thiophene-2-sulfonamide] | < 10 µM
14 | Cc1cc2c(-c3ccc(NS(=O)(=O)c4ccc(F)c(F)c4)cc3)ncnc2[nH]1 [P-0314, 3,4-difluoro-N-[4-(6-methyl-7H-pyrrolo[2,3-d]pyrimidin-4-yl)phenyl]benzenesulfonamide] | < 10 µM
15 | CCc1ccc(S(=O)(=O)Nc2ccc(-c3ncnc4[nH]c(C)cc34)cc2)cc1 [P-0315, 4-ethyl-N-[4-(6-methyl-7H-pyrrolo[2,3-d]pyrimidin-4-yl)phenyl]benzenesulfonamide] | < 10 µM
16 | Cc1cc2c(-c3ccc(NS(=O)(=O)c4ccc(Cl)c(Cl)c4)cc3)ncnc2[nH]1 [P-0316, 3,4-dichloro-N-[4-(6-methyl-7H-pyrrolo[2,3-d]pyrimidin-4-yl)phenyl]benzenesulfonamide] | < 10 µM
17 | Cc1cc2c(-c3ccc(NS(=O)(=O)c4ccc(C(F)(F)F)cc4)cc3)ncnc2[nH]1 [P-0317, N-[4-(6-methyl-7H-pyrrolo[2,3-d]pyrimidin-4-yl)phenyl]-4-(trifluoromethyl)benzenesulfonamide] | < 10 µM
18 | Cc1cc2c(-c3ccc(NS(=O)(=O)c4ccc(Br)cc4)cc3)ncnc2[nH]1 [P-0318, 4-bromo-N-[4-(6-methyl-7H-pyrrolo[2,3-d]pyrimidin-4-yl)phenyl]benzenesulfonamide] | < 10 µM
19 | CNS(=O)(=O)c1cccc(-c2ncnc3[nH]c(C)cc23)c1 [P-0319, N-methyl-3-(6-methyl-7H-pyrrolo[2,3-d]pyrimidin-4-yl)benzenesulfonamide] | < 10 µM

Row | Structure (SMILES) | GI50
20 | O=S(=O)(Nc1ccc(-c2ncnc3[nH]c(C4=CCCC4)cc23)c(F)c1)c1ccc(F)cc1 [P-0321, N-[4-[6-(cyclopenten-1-yl)-7H-pyrrolo[2,3-d]pyrimidin-4-yl]-3-fluoro-phenyl]-4-fluoro-benzenesulfonamide] | < 10 µM
21 | Cc1cc2c(-c3ccc(NS(=O)(=O)c4cnn(C(F)F)c4)cc3)ncnc2[nH]1 [P-0322, 1-(difluoromethyl)-N-[4-(6-methyl-7H-pyrrolo[2,3-d]pyrimidin-4-yl)phenyl]pyrazole-4-sulfonamide] | < 10 µM
22 | Cc1cc2c(-c3ccc(NS(=O)(=O)c4ccc(Cl)s4)cc3)ncnc2[nH]1 [P-0323, 5-chloro-N-[4-(6-methyl-7H-pyrrolo[2,3-d]pyrimidin-4-yl)phenyl]thiophene-2-sulfonamide] | < 10 µM
23 | COc1ccc(S(=O)(=O)Nc2ccc(-c3ncnc4[nH]c(C)cc34)cc2)cn1 [P-0324, 6-methoxy-N-[4-(6-methyl-7H-pyrrolo[2,3-d]pyrimidin-4-yl)phenyl]pyridine-3-sulfonamide] | < 10 µM
24 | COc1ccc(S(=O)(=O)Nc2ccc(-c3ncnc4[nH]c(C)cc34)cc2)cc1F [P-0325, 3-fluoro-4-methoxy-N-[4-(6-methyl-7H-pyrrolo[2,3-d]pyrimidin-4-yl)phenyl]benzenesulfonamide] | < 10 µM
25 | COc1ccc(S(=O)(=O)Nc2ccc(-c3ncnc4[nH]c(C)cc34)cc2)cc1 [P-0326, 4-methoxy-N-[4-(6-methyl-7H-pyrrolo[2,3-d]pyrimidin-4-yl)phenyl]benzenesulfonamide] | < 10 µM
26 | O=S(=O)(Nc1ccc(F)cc1)c1ccc(-c2ncnc3[nH]c(-c4ccc(F)cc4)cc23)c(F)c1 [P-0328, 3-fluoro-N-(4-fluorophenyl)-4-[6-(4-fluorophenyl)-7H-pyrrolo[2,3-d]pyrimidin-4-yl]benzenesulfonamide] | < 10 µM
27 | Cc1cc2c(-c3ccc(NS(=O)(=O)c4ccc(OC(F)F)cc4)cc3)ncnc2[nH]1 [P-0329, 4-(difluoromethoxy)-N-[4-(6-methyl-7H-pyrrolo[2,3-d]pyrimidin-4-yl)phenyl]benzenesulfonamide] | < 10 µM
28 | Cc1cc2c(-c3ccc(NS(=O)(=O)c4ccc(Cl)cc4)cc3)ncnc2[nH]1 [P-0330, 4-chloro-N-[4-(6-methyl-7H-pyrrolo[2,3-d]pyrimidin-4-yl)phenyl]benzenesulfonamide] | < 10 µM
29 | Cc1cc2c(-c3ccc(NS(=O)(=O)c4ccc(F)cc4)cc3)ncnc2[nH]1 [P-0331, 4-fluoro-N-[4-(6-methyl-7H-pyrrolo[2,3-d]pyrimidin-4-yl)phenyl]benzenesulfonamide] | < 10 µM
30 | O=S(=O)(Nc1ccc(-c2ncnc3[nH]c(-c4ccc(F)cc4F)cc23)c(F)c1)c1ccc(F)cc1 [P-0332, N-[4-[6-(2,4-difluorophenyl)-7H-pyrrolo[2,3-d]pyrimidin-4-yl]-3-fluoro-phenyl]-4-fluoro-benzenesulfonamide] | < 10 µM
31 | CS(=O)(=O)Nc1ccc(-c2ncnc3[nH]c(-c4ccc(F)cc4F)cc23)c(F)c1 [P-0333, N-[4-[6-(2,4-difluorophenyl)-7H-pyrrolo[2,3-d]pyrimidin-4-yl]-3-fluoro-phenyl]methanesulfonamide] | < 10 µM
32 | O=S(=O)(NCC1CC1)c1ccc(-c2ncnc3[nH]c(-c4ccc(F)cc4F)cc23)c(F)c1 [P-0334, N-(cyclopropylmethyl)-4-[6-(2,4-difluorophenyl)-7H-pyrrolo[2,3-d]pyrimidin-4-yl]-3-fluoro-benzenesulfonamide] | < 10 µM
33 | Cc1cc2c(-c3ccc(NS(=O)(=O)c4cc(F)ccc4F)cc3F)ncnc2[nH]1 [P-0335, 2,5-difluoro-N-[3-fluoro-4-(6-methyl-7H-pyrrolo[2,3-d]pyrimidin-4-yl)phenyl]benzenesulfonamide] | < 10 µM
34 | Cc1cc2c(-c3ccc(S(=O)(=O)Nc4ccc(F)cc4)cc3F)ncnc2[nH]1 [P-0336, 3-fluoro-N-(4-fluorophenyl)-4-(6-methyl-7H-pyrrolo[2,3-d]pyrimidin-4-yl)benzenesulfonamide] | < 10 µM
35 | O=S(=O)(Nc1ccc(-c2ncnc3[nH]c(-c4cc(F)ccc4F)cc23)c(F)c1)c1ccc(Cl)cc1 [P-0337, 4-chloro-N-[4-[6-(2,5-difluorophenyl)-7H-pyrrolo[2,3-d]pyrimidin-4-yl]-3-fluoro-phenyl]benzenesulfonamide] | < 10 µM
36 | O=S(=O)(Nc1ccc(-c2ncnc3[nH]c(-c4cc(F)ccc4F)cc23)c(F)c1)C1CC1 [P-0338, N-[4-[6-(2,5-difluorophenyl)-7H-pyrrolo[2,3-d]pyrimidin-4-yl]-3-fluoro-phenyl]cyclopropanesulfonamide] | < 10 µM
37 | CS(=O)(=O)Nc1ccc(-c2ncnc3[nH]c(-c4cc(F)ccc4F)cc23)c(F)c1 [P-0339, N-[4-[6-(2,5-difluorophenyl)-7H-pyrrolo[2,3-d]pyrimidin-4-yl]-3-fluoro-phenyl]methanesulfonamide] | < 10 µM
38 | O=S(=O)(Nc1ccc(-c2ncnc3[nH]c(-c4ccc(F)cc4F)cc23)c(F)c1)C1CC1 [P-0340, N-[4-[6-(2,4-difluorophenyl)-7H-pyrrolo[2,3-d]pyrimidin-4-yl]-3-fluoro-phenyl]cyclopropanesulfonamide] | < 10 µM
